Assay results from US20190169249A1 (SHATTUCK LABS, published 2019).
Results are given in words; binding and its absence hold for the method and conditions named. Some results given as binding are weak or reduced against the parent protein; the word gives no strength.

Key:
[1] = biological target: murine CD40 overexpressed on CHO-K1 cells (CHOK1/CD40) (murine) (UniProt P27512); assay: flow cytometry on CHOK1/CD40 cells
[2] = biological target: T1, recombinant mouse CD40 protein (mouse) (UniProt P27512); assay: ELISA, plate-bound recombinant mouse CD40 (FIG. 7B)
T1 sequence (looked up): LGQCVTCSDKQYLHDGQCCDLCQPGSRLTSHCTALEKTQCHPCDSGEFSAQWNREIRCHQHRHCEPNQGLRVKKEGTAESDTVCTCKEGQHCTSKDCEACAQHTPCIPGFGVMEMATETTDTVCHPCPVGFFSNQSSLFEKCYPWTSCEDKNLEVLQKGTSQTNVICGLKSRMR

[3] = biological target: T2, recombinant murine CSF1 protein (murine) (UniProt P07141); assay: ELISA, plate-bound recombinant murine CSF1 (FIG. 7B)
T2 sequence (looked up): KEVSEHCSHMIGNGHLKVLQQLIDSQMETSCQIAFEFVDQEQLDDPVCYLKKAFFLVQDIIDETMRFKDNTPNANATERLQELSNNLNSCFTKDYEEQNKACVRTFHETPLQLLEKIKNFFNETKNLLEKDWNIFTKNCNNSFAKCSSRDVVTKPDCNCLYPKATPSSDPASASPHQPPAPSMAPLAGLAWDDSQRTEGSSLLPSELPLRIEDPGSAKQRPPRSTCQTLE

[4] = biological target: murine CD40 overexpressed on CHO-K1 cells (CHOK1/CD40) (murine) (UniProt P27512); assay: flow cytometry on CHOK1/mCD40 cells against CHOK1 parental cells, hFc-PE detection
[5] = biological target: T2, recombinant murine CSF1 protein (murine); assay: ELISA, left panel BINDING TO CSF1: plate-bound CSF1, anti-Fc-HRP detection; x axis is dilution
[6] = biological target: T1, recombinant mouse CD40 protein (mouse); assay: ELISA, right panel BINDING TO CD40: plate-bound CD40, anti-CD40L antibody and HRP antibody detection; x axis is dilution

- binding [1]: binds
- binding [2]: binds
- binding [3]: binds
- binding [4]: binds
- binding [5]: binds
- binding [6]: binds
B1: murine CSF1R-Fc-CD40L chimeric protein (Fc fusion)
chain (part 1 of 2): APVIEPSGPELVVEPGETVTLRCVSNGSVEWDGPISPYWTLDPESPGSTLTTRNATFKNTGTYRCTELEDPMAGSTTIHLYVKDPAHSWNLLAQEVTVVEGQEAVLPCLITDPALKDSVSLMREGGRQVLRKTVYFFSPWRGFIIRKAKVLDSNTYVCKTMVNGRESTSTGIWLKVNRVHPEPPQIKLEPSKLVRIRGEAAQIVCSATNAEVGFNVILKRGDTKLEIPLNSDFQDNYYKKVRALSLNAVDFQDAGIYSCVASNDVGTRTATMNFQVVESAYLNLTSEQSLLQEVSVGDSLILTVHADAYPSIQHYNWTYLGPFFEDQRKLEFITQRAIYRYTFKLFLNRVKASEAGQYFLMAQNKAGWNNLTFELTLRYPPEVSVTWMPVNGSDVLFCDVSGYPQPSVTWMECRGHTDRCDEAQALQVWNDTHPEVLSQKPFDKVIIQSQLPIGTLKHNMTYFCKTHNSVGNSSQYFRAVSLGQSKQLPDESLFTP
chain (part 2 of 2): HRRLDKVEEEVNLHEDFVFIKKLKRCNKGEGSLSLLNCEEMRRQFEDLVKDITLNKEEKKENSFEMQRGDEDPQIAAHVVSEANSNAASVLQWAKKGYYTMKSNLVMLENGKQLTVKREGLYYVYTQVTFCSNREPSSQRPFIVGLWLKPSSGSERILLKAANTHSSSQLCEQQSVHLGGVFELQAGASVFVNVTEASQVIHRVGFSSFGLLKL
notes: 'constructed as described above in the Detailed Description and in U.S. 62/464,002'; also called mCSF1R-Fc-CD40L; mCD115-Fc-CD40L; not shown: Fc linker
